The values that follow come from PMC12040169 (PLOS Biology, 2025).

Structures are written as SMILES. This is one part of the list.

In this experiment the test system is T1, CTL2-GFP (C. trachomatis L2/434/Bu, GFP-expressing).
T1 construct: L2/434/Bu, GFP-expressing
The arrangement: species or system HeLa; Intracellular C. trachomatis growth in HeLa cells, bulk GFP fluorescence relative to DMSO. As to conditions: bulk GFP, single well; 28.5 h, 10 µM; inhibitor.
As for `Cc1cccc(CN2CCC(NC(=O)Cn3ccccc3=O)CC2)c1` [CBK305667], the “% of control remaining” value was 95.9275%.
Consider `O=C(O)c1cccc2c1C(=O)N(Cc1ccncc1)C2` [CBK291146], for which the “% of control remaining” value is recorded as 156.718%.
As to `CC(=O)Nc1ccc(CN2Cc3nc[nH]c3C[C@H]2c2nc(-c3ccc(F)cc3)no2)cc1` [CBK288956], the “% of control remaining” value is given as 107.161%.
The figure for `CC(NC(=O)C1CCN(Cc2ccc(Oc3ccccc3)cc2)CC1)c1ccccc1` (centres unmarked) [CBK148618] is 94.7628%.
With `CN(C)CCN(C)c1cc(-c2cccc(C(=O)O)c2)nc2ccnn12` [CBK037206], the “% of control remaining” value turned out to be 136.19%.
As to `CCc1cccc(NC(=O)NCCC2=CCCCC2)c1` [CBK045009], the “% of control remaining” value was determined as 107.844%.
The figure for `CC(Sc1ccccc1)C(=O)NCCCN1CCOCC1` (centres unmarked) [CBK269214] is 112.836%; for `CN(C)S(=O)(=O)c1ccc(C(=O)Nc2ccc(Br)cc2C(=O)c2ccccc2)cc1` [CBK263243] it is 116.481%.
Take `Cc1cc(NC(=O)c2ccc3[nH]ccc3c2)c2ccccc2n1` [CBK116270]: the “% of control remaining” value was found to be 92.1939%.
The figure for `COc1ccc(CNC(=O)c2cc(S(=O)(=O)N3CCCC3)cn2C)cc1` [CBK304637] is 99.6208%; for `COc1ccc(OC)c(NC(=O)C(C)Oc2ccccc2OC)c1` (centres unmarked) [CBK269766] it is 136.688%.
Next, `CCOC(=O)c1c(NC(=O)C2C3CCC(C3=C(C)C)C2C(=O)O)sc2c1CCCCC2` (centres unmarked) [CBK265439]: 112.582%; `Cc1ccc(C(=O)Nc2nnc(C3=COCCO3)o2)cc1C` [CBK287413]: 123.902%.
As for `O=C(CCNc1n[nH]c(=O)[nH]c1=O)N/N=C/c1ccc(C(F)(F)F)cc1` [CBK263518], the “% of control remaining” value came to 116.431%.
As to `COc1ccc(S(=O)(=O)N2CCN(C(=O)c3cc(-c4ccncc4)nc4ccc(Br)cc34)CC2)cc1` [CBK267750], the “% of control remaining” value was 87.7814%.
The figure for `Cc1noc(C)c1CN1CCC(c2ccccc2)C1` (centres unmarked) [CBK304451] is 120.213%; for `COc1ccnc(Sc2ccc(Cl)cc2)c1C#N` [CBK018571] it is 95.5954%.
In the case of `Cc1nc(CCNC(=O)N(Cc2ccsc2)C2CC2)nc2c1CCCC2` [CBK307674], the “% of control remaining” value came out at 119.065%.
Next, `O=[N+]([O-])c1ccc2c(c1)C(O)n1nc(-c3ccncc3)nc1S2` (centres unmarked) [CBK288533]: 117.303%; `CN(CC(=O)N(C)CC(F)(F)F)Cc1cccnc1` [CBK282075]: 106.61%.
With `CC(C)c1ccc(OCC(=O)NCc2ccccn2)c(Br)c1` [CBK265910], the “% of control remaining” value came out at 100%.
As for `CN1CCN(CCC(=O)N/N=C/c2ccc3c(c2)OCO3)CC1` [CBK261498], the “% of control remaining” value is given as 100%.
The figure for `O=C(CCc1cccc(F)c1)Nc1cnc(-c2ccc(F)cc2)c(-c2ccoc2)n1` [CBK037077] is 138.52%; for `NC(=O)c1ccc(C#Cc2ccccc2)o1` [CBK009809] it is 102.682%.
Next, `Cc1nn(C)c(C)c1C1CCCN1CC(=O)NCc1ccccn1` (centres unmarked) [CBK305501]: 136.129%.
For `Oc1cccc(-c2nccnc2NCc2ccc(Cl)cc2)c1` [CBK037650], the “% of control remaining” value came out at 131.595%.
Regarding `Cc1cnc2n(c1=O)C(CC(=O)NCc1ccncc1)CS2` (centres unmarked) [CBK287671], the “% of control remaining” value stood at 107.922%.
Next, `CCC(C(=O)N1CCC(O)(c2ccccn2)CC1)c1ccccc1` (centres unmarked) [CBK283768]: 88.9%.
In the case of `O=C(NC[C@H]1C[C@@H]2CC[N@]1C[C@@H]2CN1CCN(c2ccccn2)CC1)Nc1ccsc1` [CBK289113], the “% of control remaining” value amounted to 135.166%.
Next, `O=C(COc1ccc(F)cc1)Nc1ccc2ncccc2c1` [CBK159816]: 131.68%; `O=C(CSc1nnc(-c2ccccc2F)n1-c1ccccc1)Nc1ccc2cn[nH]c2c1` [CBK267591]: 115.79%; `COC(=O)c1sccc1N1C(=O)CSCC1=O` [CBK021934]: 158.102%.
As for `Cc1ccc(C(=O)CCC(=O)CCC(=O)O)cc1` [CBK265546], the “% of control remaining” value turned out to be 119.338%.
Next, `COc1ccc(C(=O)NC(Nc2ccccc2)C(Cl)(Cl)Cl)cc1OC` (centres unmarked) [CBK263680]: 70.2108%; `Cc1ccc(C(=O)CC(C(=O)O)c2cn(CCC#N)c3ccccc23)cc1` (centres unmarked) [CBK287194]: 128.627%; `COCCN1C(=O)C2(CC(=O)N(CCCCC(C)C)C2=O)c2cc(OC)ccc21` (centres unmarked) [CBK075145]: 114.851%.
The figure for `O=C(CSCc1ccccc1Cl)Nc1ccc(-c2nnc(-c3ccccc3)o2)cc1` [CBK268656] is 103.355%.
With `Cc1nn(Cc2ccccc2)c(C)c1NC(=O)CSc1nc2c(c(C(F)(F)F)n1)CCc1ccccc1-2` [CBK266112], the “% of control remaining” value was determined as 196.34%.
The figure for `O=C(c1cccc(F)c1)N1CCC(c2nnc3n2CCCCC3)CC1` [CBK284627] is 134.778%; for `CSc1nc2sc3c(c2c(=O)n1-c1ccccc1C)CC(C)(C)OC3` [CBK091875] it is 104.115%.
Consider `Cc1ccc(OCCCN2CCN(C)CC2)c(Cc2ccccc2)c1` [CBK269650C], for which the “% of control remaining” value was determined as 109.878%.
Next, `CCn1cc(CN(Cc2ccccc2)CC2CCCO2)c(C)n1` (centres unmarked) [CBK283265]: 120.764%.
Next, `COc1ccc(C2(NC(=O)c3cnn(C)c3C)CCCCC2)cc1` [CBK283731]: 124.43%; `O=C(NCc1ccccc1Cl)N(Cc1cccc(Cl)c1)CC1CCNCC1` [CBK049762]: 79.1991%.
For `O=C(Nc1nc2c(s1)CCc1ccccc1-2)C1CC1` [CBK287330], the “% of control remaining” value was 144.519%.
Next, `O=C(N[C@@H]1COCC[C@@H]1OCC1CC1)c1cccc2c1NCCC2` [CBK307227]: 104.575%.
As to `CC12CCC(=O)N1CCCN2Cc1cnn(-c2ccc(F)cc2)c1` (centres unmarked) [CBK281819], the “% of control remaining” value is given as 129.006%.
The figure for `CCCNC(=O)Cc1sccc1NS(=O)(=O)c1ccc(C)cc1` [CBK038118] is 127.231%.
The figure for `OC1(c2cccnc2)CCCN(Cc2ccccc2F)CC1` (centres unmarked) [CBK283009] is 122.929%; for `CC1(C(=O)O)CCC(C(=O)Nc2ccc(F)cc2)C1(C)C` (centres unmarked) [CBK286953] it is 112.079%.
The figure for `CC(C)(C)OC(=O)NCC1CCC(C(=O)O)CC1` (centres unmarked) [CBK278598] is 125.907%; for `CN(c1ccccc1)S(=O)(=O)c1ccc(C(=O)NCc2cccnc2)cc1` [CBK297522] it is 126.734%.
On to `CCC(=O)N1CCC(c2cc(C(F)(F)F)n3nc(C)cc3n2)CC1` [CBK284367], for which the “% of control remaining” value worked out at 105.558%.
For the molecule `COc1cccc2ncn(CCCn3cccn3)c(=O)c12` [CBK307094], the “% of control remaining” value stood at 119.735%.
The figure for `CN1CCN(c2cncc(-c3ccccc3CO)n2)CC1` [CBK065302] is 169.232%.
The figure for `COc1ccc(-n2c(S)nnc2-c2cc(C(C)(C)C)n[nH]2)cc1` [CBK269071] is 147.672%; for `O=C(Cc1ccsc1)N1CCCC1c1nc2ccccc2[nH]1` (centres unmarked) [CBK283740] it is 128.205%.
Next, `CC(=O)Nc1ccc(N2CC34C=CC(O3)C(C(=O)O)C4C2=O)cc1` (centres unmarked) [CBK287020]: 119.455%; `O=C1CC(C(=O)O)SC(NNC(=O)c2ccccc2)=N1` (centres unmarked) [CBK267944]: 138.97%; `CCN(CC)CCn1c(-c2ccccc2)c(OCCO)c2ccccc2c1=O` [CBK010078]: 106.853%.
For the molecule `COc1ccc2[nH]cc(C3CCN(C(=O)c4cc(C#N)c[nH]4)CC3)c2c1` [CBK305479], the “% of control remaining” value is given as 115.04%.
Next, `CC(=O)N1CCC2(C/C=C/C[C@H]3CN(CC(N)=O)CC[C@H]3NC(=O)CNC2=O)CC1` [CBK292148]: 101.247%.
Next, `CN1CCN(Cc2nc3c(c(=O)n(C)c(=O)n3C)n2Cc2c(F)cccc2Cl)CC1` [CBK269179]: 179.445%; `CCc1nc2ccc(C(=O)NCCCN3CCCC3=O)cn2c1N(C)Cc1cccs1` [CBK145536]: 149.262%.
The figure for `O=c1[nH]c(=O)n(Cc2cccnc2)c2nc[nH]c12` [CBK291260] is 111.029%.
For the molecule `COc1cc(OC)c(NS(=O)(=O)c2ccc(C(=O)O)cc2)cc1Cl` [CBK296620], the “% of control remaining” value is recorded as 112.591%.
Next, `CC(C)CCCC(=O)n1ccn(-c2ccc(N(C)C)cc2)c1=O` [CBK106603]: 118.132%; `Cn1cncc1CN1C2CCC1CC(O)(c1ccccc1F)C2` (centres unmarked) [CBK282649]: 111.43%.
`CC(=O)Nc1ccc(Nc2ncnc3c2cnn3-c2ccc(C)cc2C)cc1` [CBK265803]: the “% of control remaining” value stood at 134.157%.
Next, `COCC(=O)N1CCc2sccc2C1c1ccc(NCc2ccccc2F)cc1` (centres unmarked) [CBK286446]: 124.683%; `O=C(OCCc1ccncc1)N1CCCC(F)(F)C1` [CBK200157]: 179.604%; `Cn1cc(CCCNC(=O)c2cccc(CN3CCCCCC3)c2)cn1` [CBK306906]: 116.404%.
Take `COC(=O)c1ccccc1NC(=O)NCc1cc(C)n(C)n1` [CBK266887C]: the “% of control remaining” value is on record as 108.666%.
On to `CC(=O)N(C)[C@H]1CC[C@]2(CC1)CNC(=O)c1ccccc1O2` [CBK281682], for which the “% of control remaining” value was 95.9991%.
The figure for `CC(=O)Nc1nc(NC(C)=O)n2c(-c3ccccc3)nnc2n1` [CBK026649] is 123.566%.
For the molecule `CC(=O)c1ccc(NC(=O)NC[C@H]2C[C@@H]3CC[N@]2C[C@@H]3CN2CCN(C)CC2)cc1` [CBK288768], the “% of control remaining” value was found to be 77.6672%.
The figure for `O=C(O)C1CSC(c2cccnc2)N1` (centres unmarked) [CBK260910] is 115.31%; for `N#CCCCN1CCC(Oc2nccnc2OCc2cccc(Cl)c2)CC1` [CBK153642] it is 117.421%; for `CC(C)Nc1cc(OCc2cccnc2)ncn1` [CBK115883] it is 110.864%.
Next, `COC(=O)c1sccc1NS(=O)(=O)c1ccc(C(F)(F)F)cc1` [CBK200041]: 110.564%.
